# These are yes or no findings as the source states them, for the method shown. In cells and extracts the contact can be indirect. Some entries that bind do so weakly or less than the wild type.
# The chains behind the UniProt entries cited, without tags or fusion partners.
# UniProt Q9CW03: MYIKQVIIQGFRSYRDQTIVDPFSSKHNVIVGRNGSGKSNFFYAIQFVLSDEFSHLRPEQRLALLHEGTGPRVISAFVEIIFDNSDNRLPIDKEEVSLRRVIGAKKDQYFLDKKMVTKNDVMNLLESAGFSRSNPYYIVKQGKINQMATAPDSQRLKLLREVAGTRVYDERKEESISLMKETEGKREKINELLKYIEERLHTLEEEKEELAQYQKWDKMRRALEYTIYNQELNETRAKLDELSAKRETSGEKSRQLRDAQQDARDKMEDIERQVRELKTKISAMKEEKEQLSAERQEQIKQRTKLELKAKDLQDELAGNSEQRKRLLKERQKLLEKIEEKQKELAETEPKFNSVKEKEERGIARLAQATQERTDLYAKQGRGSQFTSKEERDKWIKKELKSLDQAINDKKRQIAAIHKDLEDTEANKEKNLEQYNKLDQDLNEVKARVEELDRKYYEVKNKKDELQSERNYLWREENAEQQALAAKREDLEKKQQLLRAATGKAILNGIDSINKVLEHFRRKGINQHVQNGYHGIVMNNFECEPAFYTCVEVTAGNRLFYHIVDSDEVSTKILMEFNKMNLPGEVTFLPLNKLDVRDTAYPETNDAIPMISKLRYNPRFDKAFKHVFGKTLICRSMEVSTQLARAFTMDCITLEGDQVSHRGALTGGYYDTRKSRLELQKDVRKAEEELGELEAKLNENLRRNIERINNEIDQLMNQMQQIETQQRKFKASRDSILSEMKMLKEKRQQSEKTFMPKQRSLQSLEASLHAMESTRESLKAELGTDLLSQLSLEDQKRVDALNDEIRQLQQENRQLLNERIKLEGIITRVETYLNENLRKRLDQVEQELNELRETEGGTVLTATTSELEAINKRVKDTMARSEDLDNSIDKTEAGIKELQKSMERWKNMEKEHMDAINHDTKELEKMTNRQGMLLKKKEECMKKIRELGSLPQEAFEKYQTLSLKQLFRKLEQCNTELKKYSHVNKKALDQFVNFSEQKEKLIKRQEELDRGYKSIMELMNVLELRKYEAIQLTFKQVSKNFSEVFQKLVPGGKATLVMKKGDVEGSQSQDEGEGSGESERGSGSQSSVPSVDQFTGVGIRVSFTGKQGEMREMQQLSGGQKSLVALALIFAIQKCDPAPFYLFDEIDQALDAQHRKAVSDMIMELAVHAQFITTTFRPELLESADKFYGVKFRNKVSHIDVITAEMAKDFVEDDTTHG
# T1: nucleoporin 107 (NUP107) (mouse (endogenous in XEN cells)) (UniProt Q8BH74)
# T1 sequence: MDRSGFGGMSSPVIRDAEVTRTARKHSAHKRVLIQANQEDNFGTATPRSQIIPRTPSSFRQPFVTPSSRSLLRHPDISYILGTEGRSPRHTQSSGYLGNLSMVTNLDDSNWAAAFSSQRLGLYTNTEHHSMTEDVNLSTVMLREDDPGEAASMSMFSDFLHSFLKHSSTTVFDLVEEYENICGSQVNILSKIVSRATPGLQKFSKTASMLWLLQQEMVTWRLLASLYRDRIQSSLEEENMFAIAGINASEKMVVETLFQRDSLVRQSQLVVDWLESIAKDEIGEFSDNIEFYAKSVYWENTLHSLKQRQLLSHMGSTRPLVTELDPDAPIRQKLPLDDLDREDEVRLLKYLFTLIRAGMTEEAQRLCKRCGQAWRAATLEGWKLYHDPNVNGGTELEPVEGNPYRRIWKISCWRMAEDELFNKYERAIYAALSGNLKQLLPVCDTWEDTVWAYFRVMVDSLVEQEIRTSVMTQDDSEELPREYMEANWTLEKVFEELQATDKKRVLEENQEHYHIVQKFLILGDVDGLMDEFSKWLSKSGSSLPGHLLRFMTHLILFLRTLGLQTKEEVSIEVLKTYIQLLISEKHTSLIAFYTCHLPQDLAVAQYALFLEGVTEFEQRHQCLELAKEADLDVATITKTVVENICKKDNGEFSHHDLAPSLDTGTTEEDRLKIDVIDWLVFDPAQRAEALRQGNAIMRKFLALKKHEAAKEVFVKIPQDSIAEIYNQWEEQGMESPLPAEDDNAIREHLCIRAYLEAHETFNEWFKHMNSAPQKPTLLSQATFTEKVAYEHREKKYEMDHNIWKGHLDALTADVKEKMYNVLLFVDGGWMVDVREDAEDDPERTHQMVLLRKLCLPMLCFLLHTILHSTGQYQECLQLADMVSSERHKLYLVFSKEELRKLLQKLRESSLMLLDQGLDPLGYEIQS
# B1: CCCTC-binding factor (CTCF) (protein, UniProt Q61164 1-736)
# chain: MEGEAVEAIVEESETFIKGKERKTYQRRREGGQEEDACHLPQNQTDGGEVVQDVNSSVQMVMMEQLDPTLLQMKTEVMEGTVAPEAEAAVDDTQIITLQVVNMEEQPINIGELQLVQVPVPVTVPVATTSVEELQGAYENEVSKEGLAESEPMICHTLPLPEGFQVVKVGANGEVETLEQGELPPQEDSSWQKDPDYQPPAKKTKKTKKSKLRYTEEGKDVDVSVYDFEEEQQEGLLSEVNAEKVVGNMKPPKPTKIKKKGVKKTFQCELCSYTCPRRSNLDRHMKSHTDERPHKCHLCGRAFRTVTLLRNHLNTHTGTRPHKCPDCDMAFVTSGELVRHRRYKHTHEKPFKCSMCDYASVEVSKLKRHIRSHTGERPFQCSLCSYASRDTYKLKRHMRTHSGEKPYECYICHARFTQSGTMKMHILQKHTENVAKFHCPHCDTVIARKSDLGVHLRKQHSYIEQGKKCRYCDAVFHERYALIQHQKSHKNEKRFKCDQCDYACRQERHMIMHKRTHTGEKPYACSHCDKTFRQKQLLDMHFKRYHDPNFVPAAFVCSKCGKTFTRRNTMARHADNCAGPDGVEGENGGETKKSKRGRKRKMRSKKEDSSDSEENAEPDLDDNEEEEEPAVEIEPEPEPQPQPPPPPQPVAPAPPPAKKRRGRPPGRTNQPKQNQPTAIIQVEDQNTGAIENIIVEVKKEPDAEPAEGEEEEAQAATTDAPNGDLTPEMILSMMDR
# B2: structural maintenance of chromosomes 1a (SMC1A) (protein, UniProt Q9CU62 1-1233)
# chain: MGFLKLIEIENFKSYKGRQIIGPFQRFTAIIGPNGSGKSNLMDAISFVLGEKTSNLRVKTLRDLIHGAPVGKPAANRAFVSMVYSEEGAEDRTFARVIVGGSSEYKINNKVVQLHEYSEELEKLGILIKARNFLVFQGAVESIAMKNPKERTALFEEISRSGELAQEYDKRKKEMVKAEEDTQFNYHRKKNIAAERKEAKQEKEEADRYQRLKDEVVRAQVQLQLFKLYHNEVEIEKLNKELASKNKEIEKDKKRMDKVEDELKEKKKELGKMMREQQQIEKEIKEKDSELNQKRPQYIKAKENTSHKIKKLEAAKKSLQNAQKHYKKRKGDMDELEKEMLSVEKARQEFEERMEEESQSQGRDLTLEENQVKKYHRLKEEASKRAATLAQELEKFNRDQKADQDRLDLEERKKVETEAKIKQKLREIEENQKRIEKLEEYITTSKQSLEEQKKLEGELTEEVEMAKRRIDEINKELNQVMEQLGDARIDRQESSRQQRKAEIMESIKRLYPGSVYGRLIDLCQPTQKKYQIAVTKVLGKNMDAIIVDSEKTGRDCIQYIKEQRGEPETFLPLDYLEVKPTDEKLRELKGAKLVIDVIRYEPPHIKKALQYACGNALVCDNVEDARRIAFGGHQRHKTVALDGTLFQKSGVISGGASDLKAKARRWDEKAVDKLKEKKERLTEELKEQMKAKRKEAELRQVQSQAHGLQMRLKYSQSDLEQTKTRHLALNLQEKSKLESELANFGPRINDIKRIIQSREREMKDLKEKMNQVEDEVFEEFCREIGVRNIREFEEEKVKRQNEIAKKRLEFENQKTRLGIQLDFEKNQLKEDQDKVHMWEQTVKKDENEIEKLKKEEQRHMKIIDETMAQLQDLKNQHLAKKSEVNDKNHEMEEIRKKLGGANKEMTHLQKEVTAIETKLEQKRSDRHNLLQACKMQDIKLPLSKGTMDDISQEEGSSQGEESVSGSQRTSSIYAREALIEIDYGDLCEDLKDAQAEEEIKQEMNTLQQKLNEQQSVLQRIAAPNMKAMEKLESVRDKFQETSDEFEAARKRAKKAKQAFEQIKKERFDRFNACFESVATNIDEIYKALSRNSSAQAFLGPENPEEPYLDGINYNCVAPGKRFRPMDNLSGGEKTVAALALLFAIHSYKPAPFFVLDEIDAALDNTNIGKVANYIKEQSTCNFQAIVISLKEEFYTKAESLIGVYPEQGDCVISKVLTFDLTKYPDANPNPNEQ
# Target: T1, nucleoporin 107 (NUP107) (mouse (endogenous in XEN cells))
# Assay: co-IP; 50 ug XEN cell nuclear lysate incubated with mAb414 or NUP153 antibody, RNase A, DNase I and protease inhibitor overnight at 4 C; Dynabeads Protein G 1 h at 4 C; washed with 0.1% Tween-20 in PBS; western blot with CTCF, SMC1A and SMC3 antibodies; cells treated with siNT (control), Nup107/62, Nup153, Nup107 or Nup62 siRNAs
row,Molecule,binding
1,structural maintenance of chromosomes 3 (SMC3) (from UniProt Q9CW03 1-1217),binds
2,B1,binds
3,B2,binds

# Reference: paper PMC6052020
